PubChem BioAssay AID1671190 (National Center for Advancing Translational Sciences (NCATS), 2021)
In all, about 580,000 compounds went through this assay and about 6,100 (1.1%) were called active. Inconclusive results, whose numbers are uncertain, are shown with a selection of clear calls. The call rests on the fitted dose curve; in most records, active means well fitted inhibition curve with a large enough effect; inconclusive means small, poorly fitted or top-dose-only effect, or another doubt; inactive means no such curve, though single readings can be large or run the other way. A potency beside an inconclusive call is a rough fit, not a confirmed value.

Sequences of proteins named here, by UniProt entry; tags and fusion partners are left off. A change or cut given only in a name is not applied to a line headed by its entry.
UniProt P18054: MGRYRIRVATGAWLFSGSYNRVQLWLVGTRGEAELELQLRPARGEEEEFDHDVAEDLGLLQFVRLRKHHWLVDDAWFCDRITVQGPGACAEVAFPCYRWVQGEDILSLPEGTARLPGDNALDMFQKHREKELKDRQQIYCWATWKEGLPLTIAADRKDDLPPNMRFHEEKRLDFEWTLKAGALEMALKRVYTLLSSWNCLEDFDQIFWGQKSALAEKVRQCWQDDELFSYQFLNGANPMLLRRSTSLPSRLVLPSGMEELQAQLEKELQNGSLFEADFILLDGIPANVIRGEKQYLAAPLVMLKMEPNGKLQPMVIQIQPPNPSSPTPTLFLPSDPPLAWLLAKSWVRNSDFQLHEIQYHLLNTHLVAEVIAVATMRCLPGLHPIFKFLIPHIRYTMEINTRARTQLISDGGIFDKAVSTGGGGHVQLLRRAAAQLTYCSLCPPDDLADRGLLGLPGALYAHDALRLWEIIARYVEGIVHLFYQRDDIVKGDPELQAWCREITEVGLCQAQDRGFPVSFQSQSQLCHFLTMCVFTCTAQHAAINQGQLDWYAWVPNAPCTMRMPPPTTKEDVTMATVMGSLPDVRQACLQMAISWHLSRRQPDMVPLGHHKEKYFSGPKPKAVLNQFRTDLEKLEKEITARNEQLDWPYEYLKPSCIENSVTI

Each molecule was assayed against Polyunsaturated fatty acid lipoxygenase ALOX12 (Homo sapiens) (UniProt P18054) (assay: Primary qHTS assay for inhibitors of human arachidonate 12S-lipoxygenase (ALOX12): Round 2). Conditions: purified 12hLO, xylenol orange hydroperoxide absorbance; activity change, negative = inhibition: at 108 µM (top of the series) unless noted.
Method in brief: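 Purified human 12hLO at 150 nM in 25 mM Hepes, 0.01% Triton X-100, pH 7.0, preincubated 15 min at room temperature with compound. Reaction started with 40 uM arachidonic acid, 30 min at room temperature. Hydroperoxide measured by Fe-xylenol orange, 573/405 nm absorbance ratio.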
On the % scale 0 is the no-effect control and ±100 the full control effect; potency means the concentration at half of the fitted maximal effect.

Question: For CCOc1ccc(CCNC(=O)c2cc3c(=O)oc4ccc(C)cc4c3s2)cc1OCC, which Potency is on record?
Answer: inconclusive: 3.55 µM [inhibitor, full curve, poor fit]

Question: For COc1ccccc1Cc1c(-c2ccc(Cl)cc2)nc2ccc(Cl)cn12, which Potency is on record?
Answer: inconclusive: 44.7 µM [inhibitor, partial curve, poor fit]

Question: With S=C1NC2=C(CCC/C2=C\c2ccccc2)C(c2ccccc2)N1 (configuration not stated) as the molecule, how does the Potency read?
Answer: inconclusive: 39.8 µM [inhibitor, partial curve]

Question: For O=C(O)CSc1nnc(-c2ccccc2O)n1Cc1ccccc1, which Potency is on record?
Answer: inconclusive: 3.98 µM [inhibitor, full curve, poor fit]

Question: How did the “activity change, negative = inhibition” value turn out when CCOc1ccccc1NC(=O)c1nn(C)c(=O)c2ccccc12 was run?
Answer: inactive: -10.7%

Question: How did the Potency turn out when N#C/C(=C\c1ccc(-c2ccc(C(=O)O)cc2)o1)C(=O)Nc1ccccc1C(=O)O was run?
Answer: inconclusive: 50.1 µM [inhibitor, partial curve, poor fit]

Question: Which Potency does the source give for O=C(NC[C@@H]1CCCO1)c1cccc2c1C(=O)c1ccc(N3CCOCC3)cc1S2(=O)=O here?
Answer: inconclusive: 25.1 µM [inhibitor, partial curve, poor fit]

Question: N#C/C(=C\C1CC=CCC1)c1nc2ccccc2[nH]1 (configuration not stated) was tested. Which Potency did it give?
Answer: inconclusive: 50.1 µM [inhibitor, partial curve, poor fit]

Question: With CCC(C)NCCOc1ccc(C)cc1[N+](=O)[O-] (configuration not stated) as the molecule, how does the Potency read?
Answer: inconclusive: 0.794 µM [inhibitor, full curve, poor fit]

Question: CCN(Cc1ccccc1)S(=O)(=O)c1ccc(C(=O)N(CCCN(C)C)c2nc3c(C)c(C)ccc3s2)cc1 was tested. Which Potency did it give?
Answer: inconclusive: 50.1 µM [inhibitor, single point]

Question: For O=[N+]([O-])c1ccc(C(=Nc2cccc3ccccc23)N2CCOCC2)cc1, which Potency is on record?
Answer: inconclusive: 100 µM [inhibitor, single point]

Question: For C=CCN1C[C@H](COC(=O)c2cccc(OC)c2)Oc2cccc(F)c2S1(=O)=O, which “activity change, negative = inhibition” value is on record?
Answer: inactive: 15.5%

Question: Which Potency does the source give for Cc1ccccc1CN1C2=NCCCN2c2ccccc21 here?
Answer: inactive

Question: For Cc1ccc(-n2c(C)n[nH]c2=S)cc1C, which Potency is on record?
Answer: inconclusive: 44.7 µM [inhibitor, partial curve, poor fit]

Question: For CCOC(=O)C1=C(C)OC(N)=C(C#N)C1c1cccc(C)c1 (configuration not stated), which Potency is on record?
Answer: inconclusive: 25.1 µM [inhibitor, partial curve, poor fit]

Question: For O=C(CC1N=C2c3ccccc3N=C(SCc3cccc(Cl)c3)N2C1=O)NCc1ccc2c(c1)OCO2 (configuration not stated), which Potency is on record?
Answer: inconclusive: 50.1 µM [inhibitor, partial curve, poor fit]

Question: With O=C(CN1C(=O)NC(c2ccc(Cl)cc2)C2=C1COC2=O)NC1CCCC1 (configuration not stated) as the molecule, how does the “activity change, negative = inhibition” value read?
Answer: inactive: 25.2%
